# Data published in PubChem BioAssay AID588519 (ICCB-Longwood Screening Facility, Harvard Medical School, 2011).
# Some of the results follow.
# Biological target: Genome polyprotein (Poliovirus type 1 (strain Mahoney)) (UniProt P03300)
# Test: inhibitors of poliovirus polymerase RNA elongation – biochemical, fluorescence polarization, total intensity, primary screen (AID 588519)
# Details: stronger effect = lower value; % elongation: measured here: total intensity read-out, compound at 16.7 µg/mL; z-score: measured here: FP z-score
SMILES,% elongation [%],z-score
FC(F)(F)Oc1ccc(NC2CCNCC2)cc1,104,-1.2
NC(=O)C1(Nc2ccc(F)cc2)CCNCC1,104,0.2
Cc1ccc(C(=O)NCC2(N(C)C)CCCCC2)o1,106,0.3
CCCCOc1ccccc1C(=O)NCC1(N2CCOCC2)CCCCC1,102,-0.3
O=C(NCC1(N2CCOCC2)CCCCC1)c1ccccc1Br,106,-2
c1ccc(CN2CCC(Nc3ccc4c(c3)OCO4)CC2)cc1,105,-1.7
Cn1nc(C(=O)NCC2(N3CCCCC3)CCCCC2)c2ccccc2c1=O,106,-0.2
CCOc1ccc(C(=O)NCC2(N3CCOCC3)CCCCC2)cc1,109,-0.5
CC(C)(C)OC(=O)N1CCC(Nc2ccc(OC(F)(F)F)cc2)CC1,98,0.2
CCCOc1cccc(C(=O)NCC2(N3CCOCC3)CCCCC2)c1,104,-1.3
O=C(NCC1(N2CCOCC2)CCCCC1)c1ccc(Cl)cc1,92,-2.2
O=C(NCC1(N2CCOCC2)CCCCC1)c1ccc2nc[nH]c2c1,109,0.2
O=C1CCN(Cc2ccccc2)CC1,104,1.1
CCOC(=O)N1CCC(Nc2ccc(F)cc2)CC1,101,0.2
COc1ccccc1C(=O)NCC1(N2CCOCC2)CCCCC1,114,0.4
CCOC(=O)N1CCC(Nc2cccc(C)c2)CC1,102,-0.6
COc1ccc(C(=O)NCC2(N3CCCCC3)CCCCC2)cc1,101,0.4
CCCN1CCC(Nc2ccc(OC)c(OC)c2)CC1,102,-0.2
CC1CN(CCc2ccccc2)CCC1=O (configuration not stated),115,0.3
Cc1cnc(C(=O)NCC2(N3CCCCC3)CCCCC2)cn1,97,0.5
N#CC1(Nc2ccccc2)CCN(Cc2ccccc2)CC1,102,-0.1

SMILES,% elongation [%],z-score
CCOc1ncccc1C(=O)NCC1(N(C)C)CCCCC1,105,-0.1
COc1cc(C(=O)NCC2(N3CCOCC3)CCCCC2)cc(OC)c1OC,113,-0.3
CCOc1ncccc1C(=O)NCC1(N2CCCCC2)CCCCC1,107,0
O=C(NCC1(N2CCCCC2)CCCCC1)c1n[nH]c2ccccc12,104,-0.8
CN(C)C1(CNC(=O)c2ccc(C(C)(C)C)cc2)CCCCC1,109,0.4
CCN1CCC(Nc2ccc(F)cc2)CC1,103,0.2
CC(C)(C)c1ccc(C(=O)NCC2(N3CCOCC3)CCCCC2)cc1,111,0.2
O=c1[nH]c2ccccc2n1C1CCN(CCCC(c2ccc(F)cc2)c2ccc(F)cc2Cl)CC1 (configuration not stated),103,-0.4
CC1CN(CCc2ccccc2)C(C)CC1=O (configuration not stated),115,0.8
CN(C)c1ccc(C(=O)NCC2(N3CCCCC3)CCCCC2)cc1,103,0.6
Cc1ccccc1C(=O)NCC1(N(C)C)CCCCC1,103,0
O=C(NCC1(N2CCOCC2)CCCCC1)c1ccc([N+](=O)[O-])cc1,112,-0.1
O=C(NCC1(N2CCOCC2)CCCCC1)c1ccccc1[N+](=O)[O-],108,-0.1
O=C(NCC1(N2CCOCC2)CCCCC1)c1cc2ccccc2cc1O,94,-0.4
CCCN1CCC(Nc2cc(OC)cc(OC)c2)CC1,103,0.1
O=C(NCC1(N2CCOCC2)CCCCC1)c1ccccc1,106,-0.6
Cc1c(C(=O)NCC2(N3CCOCC3)CCCCC2)oc2c(Cl)cccc12,112,0.1
NC(=O)C1(Nc2ccccc2)CCN(Cc2ccccc2)CC1,106,0.5
CN1CCC(Nc2ccc(F)cc2)CC1,105,-0.2
O=C1CCN(CCc2ccccc2)CC1,106,0.7
